According to patent publication US20110015208A1, “PHARMACEUTICAL COMPOSITIONS CONTAINING DOPAMINE RECEPTOR LIGANDS AND METHODS OF TREATMENT USING DOPAMINE RECEPTOR LIGANDS” (priority 2007, published 2011):
Entries after “also recorded” stand apart in the source; their conditions may differ. At least one structure is not confirmed: it was looked up by name or label, or the drawing left a doubt.

Key:
Format in all cases: in vivo, mouse
Settings in all cases: valproate 400 mg/kg IP
[1] = tested on: basal locomotor activity of mice; assay: Open field, basal locomotor activity of mice (Example 4A)
Experimental: (§1) Cariprazine hydrochloride and escitalopram oxalate were evaluated for anti-manic effects using the amphetamine/chlordiazepoxide (AMPH/CDP) hyperactivity test.
(§2) Male C57B1/6J mice from Jackson Laboratories (Bar Harbor, Me.) were used in this study. Mice were received at 6-weeks of age. Upon receipt, mice were assigned unique identification numbers (tail marked) and were group housed with 4 mice/cage. All animals remained housed in groups of four during the remainder of the study. All mice were acclimated to the colony room for at least two weeks prior to testing and were subsequently tested at an average age of 8 weeks of age. During the period of acclimation, mice were examined on a regular basis, handled, and weighed to assure adequate health and suitability. Mice were maintained on a 12/12 light/dark cycle. The room temperature was maintained between 20 and 23° C. with a relative humidity maintained between 30% and 70%. Chow and water were provided ad libitum for the duration of the study. In each test, animals were randomly assigned across treatment groups.
(§3) Distance traveled is measured by consecutive beam breaks.
Data was analyzed by analysis of variance (ANOVA) followed by Fisher PLSD post-hoc analysis when appropriate. An effect was considered significant if p<0.05. Outliers that fell above and below two standard deviations from the mean were removed from the final analysis.

[2] = tested on: d-amphetamine/chlordiazepoxide mixture (AMPH/CDP)-induced hyperactivity in mice; assay: d-Amphetamine/chlordiazepoxide (AMPH/CDP) hyperactivity test (Example 4A)
Experimental: as §1
as §2, with “groups. […]” for “groups.”
as §3
Data was analyzed by analysis of variance (ANOVA) followed by Fisher PLSD post-hoc analysis when appropriate. […]

[3] = tested on: d-amphetamine/chlordiazepoxide mixture (AMPH/CDP)-induced hyperactivity in mice; assay: d-Amphetamine/chlordiazepoxide (AMPH/CDP) hyperactivity test (Example 4B)
Experimental: as §1
Male C57B1/6J mice (8 weeks old) from Jackson Laboratories (Bar Harbor, Me.) were used in this study. Upon receipt, mice were assigned unique identification numbers (tail marked) and were group housed (4 mice/cage) in OPTI mouse ventilated cages. All animals remained housed in groups of four during the remainder of the study. During the period of acclimation, mice were examined on a regular basis, handled, and weighed to assure adequate health and suitability. Mice were maintained on a 12/12 light/dark cycle. The room temperature was maintained between 20 and 23° C. with a relative humidity maintained between 30% and 70%. Chow and water were provided ad libitum for the duration of the study. In each test, animals were randomly assigned across treatment groups.
d-Amphetamine sulfate (Sigma, 4.0 mg/kg) and chlordiazepoxide (CDP; Sigma, 2.5 mg/kg) were dissolved in sterile water and were administered intraperitoneally at a dose volume of 10 ml/kg.
as §3
Data was analyzed by analysis of variance (ANOVA) followed by Fisher PLSD post-hoc analysis when appropriate. An effect was considered significant if p<0.05. […]

**Q.** `CCCC(CCC)C(=O)O` [Valproate] was tested. Which “effect on basal activity compared to water-treated mice” value [1] did it give?
**A.** The value was “Neither valproate nor escitalopram oxalate (0.5, 2.0, and 5.0 mg/kg) had a significant effect”.

**Q.** What about the “effect on AMPH/CDP mixture-induced hyperactivity” value [2] of the same compound?
**A.** Its value is “significantly decreased”.

**Q.** What about the “effect on AMPH/CDP mixture-induced hyperactivity” value [3] of the same compound?
**A.** The value was “significantly decreased; also recorded: significantly attenuated”.
